Data taken from the supplement of paper PMC7238544.
Structures can show the parent of a compound that is named as a salt. ± gives the standard deviation of the averaged measurements. This is one part of the list. The data scatter; read single values as rough.

Each molecule was assayed on hAMSC donor 2 (assay: Hoechst total cell count ratio vs vehicle control; hAMSC are human adipose-derived mesenchymal stem cells given an EGFP-luciferase plasmid by lipofection; higher = more cells (less toxicity)). Settings: priming compound concentration 1.7 µM.

Compound | Hoechst total cell count ratio
O=C1NC(=O)C(c2ccccc2)(c2ccccc2)N1 [Dilantin] | 1.01 ± 0.087
CC(C)C[C@H](NC(=O)[C@@H](COC(C)(C)C)NC(=O)[C@H](Cc1ccc(O)cc1)NC(=O)[C@H](CO)NC(=O)[C@H](Cc1c[nH]c2ccccc12)NC(=O)[C@H](Cc1cnc[nH]1)NC(=O)[C@@H]1CCC(=O)N1)C(=O)N[C@@H](CCCNC(=N)N)C(=O)N1CCC[C@H]1C(=O)NNC(N)=O [Goserelin acetate] | 1.46 ± 0.19
O=C1CN(/N=C/c2ccc(-c3ccc([N+](=O)[O-])cc3)o2)C(=O)N1 [Dantrolene sodium] | 1.1 ± 0.066
CCN(CC)CC(=O)Nc1c(C)cccc1C [Lidocaine] | 1.34 ± 0.067
C=CC[C@@H]1/C=C(\C)C[C@H](C)C[C@H](OC)[C@H]2O[C@@](O)(C(=O)C(=O)N3CCCC[C@H]3C(=O)O[C@H](/C(C)=C/[C@@H]3CC[C@@H](O)[C@H](OC)C3)[C@H](C)[C@@H](O)CC1=O)[C@H](C)C[C@@H]2OC [Tacrolimus] | 1.28 ± 0.076
CC[C@@H](CO)NCCN[C@@H](CC)CO [Ethambutol] | 1.14 ± 0.15
O=C(O)CCCc1ccccc1 [4-Phenylbutyric acid] | 0.926 ± 0.15
O=c1c(-c2ccccc2)c1-c1ccccc1 [Diphenylcyclopropenone] | 1.07 ± 0.15
CC(C)(C(=O)c1cccnc1)c1cccnc1 [Metyrapone] | 0.984 ± 0.11
COc1c(N2CCNC(C)C2)c(F)cc2c(=O)c(C(=O)O)cn(C3CC3)c12 (stereo not drawn) [Gatifloxacin] | 1.19 ± 0.14
Cc1cnc(C(=O)NCCc2ccc(S(=O)(=O)NC(=O)NC3CCCCC3)cc2)cn1 [Glipizide] | 1.49 ± 0.043
Clc1ccc(CO/N=C(\Cn2ccnc2)c2ccc(Cl)cc2Cl)c(Cl)c1 [Oxiconazole nitrate] | 1.29 ± 0.12
CN1CCN(CCCN2c3ccccc3Sc3ccc(Cl)cc32)CC1 [Prochlorperazine maleate] | 1.51 ± 0.062
C=C1/C(=C\C=C2/CCC[C@]3(C)[C@@H]([C@H](C)CCCC(C)(C)O)CC[C@@H]23)C[C@@H](O)C[C@@H]1O [Calcitriol] | 0.878 ± 0.059
C#C[C@]1(O)CC[C@H]2[C@@H]3CCc4cc(OC)ccc4[C@H]3CC[C@@]21C [Mestranol] | 1.08 ± 0.058
Nc1ccn([C@@H]2O[C@H](CO)[C@@H](O)[C@@H]2O)c(=O)n1 [Cytarabine] | 1.13 ± 0.25
COc1cccc2c1C(=O)c1c(O)c3c(c(O)c1C2=O)C[C@@](O)(C(C)=O)C[C@@H]3O[C@H]1C[C@H](N)[C@H](O)[C@H](C)O1 [Daunorubicin hydrochloride] | 0.182 ± 0.016
CC/C(=C(\c1ccccc1)c1ccc(OCCN(C)C)cc1)c1ccccc1 [Tamoxifen] | 1.26 ± 0.089
COc1ccc(CN2CCN(C(c3ccc(F)cc3)c3ccc(F)cc3)CC2)c(OC)c1OC [Lomerizine dihydrochloride] | 1.64 ± 0.53

2 neighbouring entries already listed, quoted:
Compound | Hoechst total cell count ratio
C=C1/C(=C\C=C2/CCC[C@]3(C)[C@@H]([C@H](C)CCCC(C)(C)O)CC[C@@H]23)C[C@@H](O)C[C@@H]1O [Calcitriol] | 0.878 ± 0.059
C#C[C@]1(O)CC[C@H]2[C@@H]3CCc4cc(OC)ccc4[C@H]3CC[C@@]21C [Mestranol] | 1.08 ± 0.058

(next part)

Compound | Hoechst total cell count ratio
CC(C)NCC(O)COc1cccc2ccccc12 (stereo not drawn) [Propranolol hydrochloride] | 1.16 ± 0.13
CN[C@@H]1[C@H](O)[C@H](NC)[C@H]2O[C@@]3(O)C(=O)C[C@@H](C)O[C@H]3O[C@@H]2[C@H]1O [Spectinomycin] | 1.24 ± 0.13
C=C[C@H]1CN2CC[C@H]1C[C@@H]2[C@@H](O)c1ccnc2ccc(OC)cc12 [Quinidine] | 1.1 ± 0.17
N[C@@H]1CONC1=O [D-Cycloserine] | 1.26 ± 0.21
CC(C)NCC(O)c1ccc(O)c(O)c1 (stereo not drawn) [Isoproterenol hydrochloride] | 1.07 ± 0.092
NC(=O)c1cccnc1 [Nicotinamide] | 1.24 ± 0.008
CC(=O)Oc1ccccc1C(=O)Nc1ncc([N+](=O)[O-])s1 [Nitazoxanide] | 1.15 ± 0.052
Cc1nc2ccccn2c(=O)c1CCN1CCC(C(=O)c2ccc(F)cc2)CC1 [Pirenperone] | 1.42 ± 0.1
CC(C)(C(=O)O)c1ccc(C(O)CCCN2CCC(C(O)(c3ccccc3)c3ccccc3)CC2)cc1 (stereo not drawn) [Fexofenadine hydrochloride] | 1.2 ± 0.11
CC1CNc2c(cccc2S(=O)(=O)N[C@@H](CCCNC(=N)N)C(=O)N2CC[C@@H](C)C[C@@H]2C(=O)O)C1 (stereo partly drawn) [Argatroban] | 1.11 ± 0.041
O=c1[nH]cnc2c1ncn2[C@H]1CC[C@@H](CO)O1 [Didanosine] | 1.19 ± 0.091
CC(C)NCC(O)COc1ccc(COCCOC(C)C)cc1 (stereo not drawn) [Bisoprolol fumarate] | 1.22 ± 0.12
CCN1CCN(c2cc3c(cc2F)c(=O)c(C(=O)O)cn3C2CC2)CC1 [Enrofloxacin] | 1.02 ± 0.13
O=C1N(c2ccccc2)c2ccccc2C1(Cc1ccncc1)Cc1ccncc1 [Linopirdine dihydrochloride] | 1.34 ± 0.21
CN(C)CCC=C1c2ccccc2COc2ccccc21 [Doxepin hydrochloride] | 1.33 ± 0.02
C[C@@H]1CN(CCCn2c3ccccc3c3ccccc32)C[C@H](C)N1 [Rimcazole dihydrochloride] | 1.69 ± 0.075
Nc1nc2ccc(OC(F)(F)F)cc2s1 [Riluzole hydrochloride] | 1.1 ± 0.14
NC(N)=Nc1nc(CSCC/C(N)=N/S(N)(=O)=O)cs1 [Famotidine] | 1.17 ± 0.12
CN(C)CCN(Cc1ccccc1)c1ccccn1 [Tripelennamine hydrochloride] | 1.58 ± 0.13
